Read-outs that look alike come from different tables or passages of the source.
Experiments:
[1] = probe with glycogen, Excitation 300-500, Emission 545
Description: (§1) 3 μM of each probe was applied to serial two fold dilutions of the carbohydrate of which the concentration shown here are 5 mg/ml (_.), 2.5 mg/ml (. . . ), 1.25 mg/ml (__) and 0 mg/ml (_). The excitation spectrum of the probe was analyzed for wavelengths 300-500 nm with emission read at 545 nm.
3 μM of each probe was applied to serial two fold dilutions of the carbohydrate. Respective probes were excited at wavelengths unique to each probe (specified in figure), and emission was read at 545 nm.
(§2) Serial dilutions of carbohydrate suspensions were prepared in dH2O. Concentrations ranging from 10 to 0.039 mg/ml was used for β-1,3-glucan, cellulose and chitin, whereas 5 to 0.019 mg/ml was used for sodium alginate, glucose, amylose, glycogen, cellulobiose, heparin, chondroitin sulfate A. 3 μM of each LCO probe was added to 1 ml aliquots of each concentration of carbohydrate, after which 100 μl was dispensed in triplicates into 96 well plates. Excitation spectra were collected by exciting the sample from 300 to 500 nm and detecting emission at 545 nm. Detection of carbohydrate is concluded when there is a reproducible change in λmax and/or RFU intensity with reference to the negative control. Data from three concentrations, as well as the negative control are shown for each carbohydrate as specified in respective figure.
(§3) The excitation wavelength (emission detected at 545 nm) selected for each LCO is either (1) the λmax, or (2) the excitation wavelength which suffers the lowest background. A linear regression analysis is performed to determine the relationship between the carbohydrate concentration and RFU.

[2] = Excitation 300-500, Emission 545
Description: The excitation spectrum of the probe was analyzed for wavelengths 300-500 nm with emission read at 545 nm.
(§4) 3 μM of each probe was applied to serial two fold dilutions of the insoluble carbohydrate. Respective probes were excited at wavelengths unique to each probe (specified in figure), and emission was read at 545 nm.
as §2, §3

[3] = probe with sodium alginate, Excitation 300-500, Emission 545
Description: as §1, with “of the insoluble carbohydrate of” for “of the carbohydrate of”
as §4
as §2, with “Data from three concentrations, as well as the negative control are shown for each carbohydrate as specified in respective figure.” left out
The excitation wavelength (emission detected at 545 nm) selected for each LCO is either (1) the λmax, or (2) the excitation wavelength which suffers the lowest background. […]

| SMILES | λmax-Bound [1] [nm] | λmax-Bound ([2]; probe with cellulose) [nm] | λmax-Bound ([2]; probe with chitin) [nm] | λmax-Bound ([2]; probe with β-1,3-glucan) [nm] | λmax-Bound [3] [nm] |
| --- | --- | --- | --- | --- | --- |
| Cl.Cl.N=C(N)NCCC[C@H](NC(=O)Cc1cc(-c2cccs2)sc1-c1ccc(-c2sc(-c3cccs3)cc2CC(=O)N[C@@H](CCCNC(=N)N)C(=O)O)s1)C(=O)O [pHTA-Arg, penta Hydrogen Thiophene Acetic acid Arginine] | 391 | 444 | 417 | 390 |  |
| NCCCC[C@H](NC(=O)Cc1cc(-c2cccs2)sc1-c1ccc(-c2sc(-c3cccs3)cc2CC(=O)N[C@@H](CCCCN)C(=O)[O-])s1)C(=O)[O-].[Na+].[Na+] [pHTA-Lys, penta Hydrogen Thiophene Acetic acid Lysine] | 384 | 441 | 437 |  | 390 |
| O=C(Cc1cc(-c2cccs2)sc1-c1ccc(-c2sc(-c3cccs3)cc2CC(=O)N[C@@H](Cc2ccc([O-])cc2)C(=O)[O-])s1)N[C@@H](Cc1ccc([O-])cc1)C(=O)[O-].[Na+].[Na+].[Na+].[Na+] [pHTA-Tyr, penta Hydrogen Thiophene Acetic acid Tyrosine] | 405 |  | 411 | 400 | 403 |

Reference: patent publication US9958439B2, “Carbohydrate detection” (RICHTER LIFE SCIENCE DEVELOPMENT AB, priority 2012, dated 2018)
